From PubChem BioAssay AID1259415 (National Center for Advancing Translational Sciences (NCATS), 2018)
Out of some 410,000 compounds screened, about 18,000 (4.4%) were called active. This list was built around the results that the source calls inconclusive (neither active nor inactive); the mix of calls is not that of the screen. Cut-off read from the data, not from the text of the source: active = activity change below about -60%; inconclusive = no clear call, values can overlap the other calls; inactive = above about -39%.

Assay: qHTS Assay for inhibitors of the human cytomegalovirus (HCMV)
Details: HFF cells, HCMV-luciferase reporter, 72 h; at 57.5 µM; stronger effect = lower value
How it was run: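 Human foreskin fibroblasts infected with luciferase-reporter HCMV at MOI 1 PFU/cell, compounds at two doses. Luciferase measured 72 h post infection; normalized to buffer-only basal and Salinomycin (10uM) controls.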
% is set by controls: 0 for no effect and ±100 for the full control effect.

| SMILES | activity change, negative = inhibition |
| --- | --- |
| O=C(CSc1nnc(-c2ccccc2)n1Cc1ccccc1)N1CCOCC1 | inactive: -9.65% |
| Cc1cccc(Nc2c(O)nc[nH]c2=O)c1 | inactive: 7.28% |
| Cc1nc(N2CCN(c3ccccc3)CC2)nc2c1C(=O)CCC2 | inconclusive: -42.1% |
| CN(C)CCNc1ncnc2c1sc1nc(N3CCOCC3)c3c(c12)CC(C)(C)SC3 | inconclusive: -49.7% |
| CC(=O)c1ccc(N2CCN(CC(=O)N(C3CC3)C3CCS(=O)(=O)C3)CC2)c(F)c1 (stereo unspecified) | inconclusive: 0% |
| CCCC(=O)n1nc(-c2ccc(OC)cc2)nc1N | inconclusive: -45.6% |
| COc1ccc(-n2c(=S)[nH]c3cc(C(=O)NCCCN4CCCC4=O)ccc3c2=O)cc1OC | active: -99.1% |
| Cc1ccccc1OCC(O)CN(Cc1ccccc1O)C1CCCCC1 (stereo unspecified) | inconclusive: -48.8% |
| COc1cc(/C=C/c2cc[n+](C)cc2)ccc1OCC(=O)Nc1ccccc1 | inconclusive: -45.4% |
| O=C(O)Cn1cc(/C=C2\SC(=O)N(c3ccccc3)C2=O)c2ccccc21 | inactive: -5.31% |
| COc1cccc(NC(=O)c2cnn(-c3ccccc3)c2-n2cccc2)c1 | active: -62.5% |
| Cc1cc(OCC(=O)Nc2ccncc2)ccc1Br | active: -90.1% |
| Cc1ccc(S(=O)(=O)N2CCN(c3ccc(C(F)(F)F)cc3[N+](=O)[O-])CC2)cc1 | active: -76.9% |
| COC(=O)c1c(CCl)noc1C(=O)NC(C)C | inconclusive: -40.1% |
| COC(=O)c1ccc2nc(-c3ccccc3)c(Cc3ccccc3OC)n2c1 | inactive: 7.2% |
| Cc1noc(C)c1S(=O)(=O)N1CCC(C(=O)N2CCN(c3ccc(Cl)cc3)CC2)CC1 | inconclusive: -52% |
| COc1ccc(OC)c(N(CC(=O)Nc2ccccc2)S(=O)(=O)c2ccccc2)c1 | inconclusive: -53.6% |
| CCN(CC)C(=O)CSc1nc(COc2ccccc2)nc2ccccc12 | inconclusive: -59.9% |
| Cc1ccc(C(=O)Nc2nnc([C@H]3C[C@H](O)[C@@H](CO)O3)s2)cc1 | inactive: -4.71% |
| CN(CCc1ccccc1)C(=O)c1ccc(NC(=O)Cc2ccc(NC(=O)C3CCN(S(=O)(=O)c4cccc([N+](=O)[O-])c4)CC3)cc2)cc1 | inactive: -9.04% |
| CC(C)c1ccc(NC(=O)c2cc(S(=O)(=O)NCc3ccccc3Cl)ccc2F)cc1 | active: -81.6% |
| O=C(O)/C=C/c1cccc(NC(=O)Nc2ccc([N+](=O)[O-])cc2)c1 | inconclusive: -52.4% |

| SMILES | activity change, negative = inhibition |
| --- | --- |
| Cn1c(CNc2cccc(Cl)c2)nnc1SCC(=O)OC1CCCCC1 | active: -79.9% |
| CC(C)NC(=O)C1(C)CN(S(C)(=O)=O)CC(=O)N1C1CCCCCC1 (stereo unspecified) | inactive: -1.54% |
| CCCCC(=O)NCCc1cc2c(C)ccc(C)c2[nH]c1=O | inconclusive: -40% |
| O=C(CCC1N=C2c3ccccc3N=C(SCc3ccc(Cl)cc3)N2C1=O)NCc1ccco1 (stereo unspecified) | inconclusive: -42.7% |
| COc1ccc(-c2noc(CCC(=O)NCC3CCCO3)n2)cc1OC (stereo unspecified) | inactive: -18.4% |
| CC(=O)C1=C(O)C(=O)N(c2ccc(O)cc2)C1c1ccccc1Cl (stereo unspecified) | inactive: 18% |
| O=c1c(Cc2c(F)cccc2Cl)c(O)ccn1CC1CCCO1 (stereo unspecified) | inconclusive: -45.2% |
| O=C(NNS(=O)(=O)c1ccc(F)cc1)c1ccc2c(c1)OCO2 | inactive: 13.9% |
| COc1cccc(C(c2nnnn2Cc2ccccc2)N2CCC(n3c(=O)[nH]c4ccccc43)CC2)c1OC (stereo unspecified) | active: -70% |
| O=C(Nc1ccccc1F)C1CC1c1ccccc1 (stereo unspecified) | inactive: -19.4% |
| CC(=O)C1=C(O)C(=O)N(Cc2cccnc2)C1c1ccccc1Cl (stereo unspecified) | inconclusive: -44.6% |
| COC(=O)c1cc(C)sc1NC(=O)C1C2C=CC(CC2)C1C(=O)O (stereo unspecified) | inconclusive: -44.5% |
| COc1ccc(Cn2c(SCC(N)=O)nc3c(sc4ccccc43)c2=O)cc1 | inconclusive: -56.4% |
| CCN(CC)S(=O)(=O)c1ccc(Cl)c(NC(=O)COC(=O)c2nc3nc(C)cc(C)n3n2)c1 | inconclusive: -48.9% |
| COc1ccc(C(=O)Nc2ccccc2C(=O)N/N=C/c2ccco2)cc1 | inactive: 10.2% |
| Cc1ccc(OCCCC(=O)N(C)CC(=O)Nc2c(C)cccc2C)cc1 | inconclusive: -53.5% |
| COc1ccc(-c2nnn(CC(=O)N(CCN3CCOCC3)C(C(=O)NC3CCCC3)c3ccco3)n2)cc1 (stereo unspecified) | inconclusive: -44.3% |
| CCCS(=O)(=O)NC(=O)C1(C)CCN(C(=O)c2ccc(F)c(C)c2)C1 (stereo unspecified) | inactive: 9.62% |
| COc1ccc(CCNC(=O)C(C(=O)c2ccccc2)n2ccccc2=O)cc1OC (stereo unspecified) | inconclusive: -44% |
| CCCC(C(=O)OCCN(CC)CC)(c1ccccc1)c1ccccc1 | inconclusive: -40.9% |
| COc1ccc(NC(=O)CN(C)C(=O)c2cccc(S(=O)(=O)N3CCN(c4ccc(F)cc4)CC3)c2)cc1 | active: -73.4% |
| CC(=O)Nc1ccc(NC(=O)c2ccc3sc([C@H]4C[C@H](O)[C@@H](CO)O4)nc3c2)cc1 | inactive: -12.4% |

Of the compounds above, these have a furan ring, fused or not.

| SMILES | activity change, negative = inhibition |
| --- | --- |
| O=C(CCC1N=C2c3ccccc3N=C(SCc3ccc(Cl)cc3)N2C1=O)NCc1ccco1 (stereo unspecified) | inconclusive: -42.7% |
| COc1ccc(C(=O)Nc2ccccc2C(=O)N/N=C/c2ccco2)cc1 | inactive: 10.2% |
| COc1ccc(-c2nnn(CC(=O)N(CCN3CCOCC3)C(C(=O)NC3CCCC3)c3ccco3)n2)cc1 (stereo unspecified) | inconclusive: -44.3% |

Additional results follow:

| SMILES | activity change, negative = inhibition |
| --- | --- |
| Cc1cccc(OCC(=O)Nc2ccc3c(c2)nc(CCN2CCC(C)CC2)n3C)c1 | active: -69.2% |
| CC(=O)Nc1cccc(/C(C)=N/Nc2ccc(S(=O)(=O)Nc3ccccc3C(=O)O)cc2[N+](=O)[O-])c1 | inactive: 14.1% |
| CN(C)CCNC(=O)/C(=C/c1ccc(-c2cccc(Cl)c2)o1)NC(=O)c1ccccc1 | inactive: 11.6% |
| CCOC(=O)N1CCC2(CC1)OC(=O)C(C)=C2C(=O)NCc1cccc(OC)c1 | inactive: 0% |
| COc1ccc(S(=O)(=O)N2CCOCC2)cc1N(C)S(=O)(=O)c1ccc(C)cc1 | inconclusive: -49.2% |
| CCOP(=O)(OCC)c1nc(-c2ccc(C)cc2)oc1NCc1ccccc1 | active: -60.6% |
| CCCCC(NC(=O)c1cccc(Br)c1)C(=O)O (stereo unspecified) | inconclusive: -40.3% |
| Cc1sc2ncnc(N3CCC(C(=O)Nc4ccc(OC(F)F)c(Cl)c4)CC3)c2c1C | inactive: -1.63% |
| O=C(CSCc1ccccc1F)NCc1ccc(F)cc1 | inconclusive: -40.4% |
| Cn1nc(C(=O)OCC(=O)Nc2ccc(C(N)=O)cc2)c2ccccc2c1=O | inactive: 16.5% |
| Cc1ccc(C)c(S(=O)(=O)Nc2ccc(S(=O)(=O)Nc3ncccn3)cc2)c1 | inactive: -3.54% |
| N#C/C(=C\c1cc2ccccc2nc1N1CCOCC1)C(=O)Nc1ccc(N2CCOCC2)cc1 | inconclusive: -43.3% |
| Cc1ccc(SCC(=O)NNC(=O)c2cncc(Br)c2)cc1 | inconclusive: -46.4% |
| CCS(=O)(=O)c1nc(S(=O)(=O)c2ccc(Cl)cc2)c(N2CCN(CCO)CC2)s1 | active: -66% |
| COc1cc(N2CCCC2)c(OC)cc1C=O | inconclusive: -55% |
| Cc1ccc2c(c1)C1NC(=S)NC(C)(O2)C1C(=O)Nc1ccc(Cl)cc1 (stereo unspecified) | inactive: -25.7% |
| CCOC(=O)c1c(NC(=O)CSc2nnc(-c3c[nH]c4ccccc34)n2CCOC)sc2c1CCCCC2 | active: -66.7% |
| CN(Cc1ccc(F)cc1)C(=O)c1cc(COc2ccc(F)cc2F)on1 | inconclusive: -59.5% |
| O=C(CSc1ccc(-c2ccco2)nn1)N1CCCC1 | inactive: 9.02% |
| CSc1nccc(Oc2cncc(Cl)c2)n1 | inconclusive: -55.1% |
| CC(C)(C)NC(=O)COC(=O)c1cc(Br)ccc1Cl | inconclusive: -58.7% |
| COc1cc(NC(=O)COC(=O)c2cnccn2)c(C)cc1[N+](=O)[O-] | inactive: 0% |

| SMILES | activity change, negative = inhibition |
| --- | --- |
| CCOc1ccc(C(=O)Nc2cc(-c3cn4cccnc4n3)ccc2C)cc1OCC | inconclusive: -46.5% |
| O=C1NC[C@@H](CCCCN2C[C@H](Cc3ccccc3)N(Cc3ccccc3)C(=O)C2=O)N(Cc2ccccc2)C1=O | inconclusive: -41.5% |
| COc1ccc(NS(=O)(=O)c2ccc(N3CCOCC3)c(NC(=O)c3ccc(OC)cc3)c2)cc1 | inconclusive: -47.4% |
| CCN(CC)c1ccc(/C=N/N=C(N)N)c(O)c1 | inconclusive: -58.9% |
| Clc1cccc(-c2ccc(C=Nc3ccc(N4CCOCC4)cc3)o2)c1Cl | inconclusive: -41.8% |
| O=C(c1cccs1)N1N=C(c2ccccc2)CC1c1ccccc1 (stereo unspecified) | inconclusive: -42.1% |
| CCOC(=O)c1c(C)n(Cc2ccccc2)c2ccc(OCC(O)CNC(C)(C)C)cc12 (stereo unspecified) | inconclusive: -40.7% |
| COc1ccc(OC)c(N(CC(=O)NCCSc2ccccc2)S(C)(=O)=O)c1 | inactive: 4.71% |
| OCc1ccc(O)c2ncccc12 | active: -97.7% |
| CCOC(=O)Nc1ccc2c(c1)ncn2C1CCCCC1 | inconclusive: -40.9% |
| Cn1nc(C(F)(F)F)c(/C=N/OC(=O)c2ccccc2Cl)c1SCc1ccc(Cl)cc1 | inconclusive: -55.7% |
| COc1ccc2c(c1)[nH]c1c(N3CCSCC3)ncnc12 | inconclusive: -40.5% |
| C=C(C)Cn1cnc2cc(C)c(C)cc21 | inconclusive: -42.4% |
| Cc1ccc2nc(-c3ccco3)c(CC(C)(C)C)n2c1 | inactive: 13.5% |
| CCc1nn(C(C)C(=O)NC2CCCCCC2)c(=O)c2cc3occc3n12 (stereo unspecified) | inconclusive: -49% |
| CN(C)S(=O)(=O)N1CCC(Oc2ccc(C(=O)N3CCCCCC3)cc2)CC1 | inconclusive: -45.3% |
| COc1cc(C2C3=C(COC3=O)OC(C)(C)Oc3cc4c(cc32)OCO4)cc(OC)c1OC (stereo unspecified) | active: -79.9% |
| Cc1cccc(C(=O)NCc2nnc(SCC(=O)NC(C)c3ccccc3)n2C)c1 (stereo unspecified) | inconclusive: -43.1% |
| O=C(CCSc1ccccc1)NCc1cccnc1 | inconclusive: -46% |
| O=C(/C=C/c1ccco1)Nc1ccc(N2CCCC2)cc1 | inactive: 0.535% |

Reformatted: entries from further up.
SMILES	activity change, negative = inhibition
COc1cc(/C=C/c2cc[n+](C)cc2)ccc1OCC(=O)Nc1ccccc1	inconclusive: -45.4%
O=C(O)Cn1cc(/C=C2\SC(=O)N(c3ccccc3)C2=O)c2ccccc21	inactive: -5.31%
